Data on 33 compounds can be found in the supplement of paper PMC4604168 (melanoma cell lines).

The list shows a part of the results. Repeats are few or missing, and single values can be far off.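 Cells were imaged in 1,536-well plates, and nuclei stained with an antibody against cleaved PARP were counted against all DNA-stained nuclei to give the apoptosis fraction. Screening doses were chosen to leave most cells alive, and resting and induced cleaved-PARP levels differ strongly between cell lines.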

For one test, the system named is MeWo. Nature of the test: cleaved PARP positive nuclei fraction relative to DMSO control; melanoma cells; higher = more apoptosis. The settings on record: library dose: low library concentration; 72 h.
Turning to `C=CCn1c(=O)c2cnc(Nc3ccc(N4CCN(C)CC4)cc3)nc2n1-c1cccc(C(C)(C)O)n1` + O=C1NC(=O)/C(=C/c2ccc(-c3ccc(F)cc3O)o2)S1 [AS252424] (first compound 0.02 µM, partner dose 1 µM), the “cleaved PARP positive nuclei fraction” value came out at 97.9%.

As to `CC1(C)NC(=O)N(c2ccc([N+](=O)[O-])c(C(F)(F)F)c2)C1=O` [nilutamide] + COc1ccc(-c2ccc3c(N4CCOCC4)nc(N4C[C@@H](C)O[C@@H](C)C4)nc3n2)cc1CO [KU0063794] (first compound 1 µM, partner dose 0.02 µM), the “cleaved PARP positive nuclei fraction” value amounted to 96.6%.

For the compound `CC(C)(C)c1cnc(CSc2cnc(NC(=O)C3CCNCC3)s2)o1` + Oc1nc(-c2ccc(C(F)(F)F)cc2)nc2c1CSCC2 [XAV939] (first compound 0.01 µM, partner dose 2 µM), the “cleaved PARP positive nuclei fraction” value amounted to 169%.

Regarding `COCC[n+]1c2c(n(Cc3cnccn3)c1C)C(=O)c1ccccc1C2=O` + COc1ccc(COc2ccc(Cc3cnc(N)nc3N)cc2OC)cc1 [GW2580] (first compound 0.0004 µM, partner dose 1 µM), the “cleaved PARP positive nuclei fraction” value is 38.8%.

For `Nc1cccc2c1CN(C1CCC(=O)NC1=O)C2=O` (stereo not drawn) [lenalidomide] + COc1cc2ncnc(Nc3ccc(Oc4ccccc4)cc3)c2cc1OC [SrcI1] (first compound 1 µM, partner dose 2 µM), the “cleaved PARP positive nuclei fraction” value was 207%.

Consider `CO[C@@H]1[C@H](N(C)C(=O)c2ccccc2)C[C@H]2O[C@]1(C)n1c3ccccc3c3c4c(c5c6ccccc6n2c5c31)C(=O)NC4` [Midostaurin] + COc1ccc2c(c1)CCC1C2CCC2(C)C(NCCCCCCN3C(=O)C=CC3=O)CCC12 [U73122] (first compound 0.08 µM, partner dose 0.4 µM), for which the “cleaved PARP positive nuclei fraction” value was found to be 271%.

The subject of another test is RPMI7951. The description is as above. The settings on record: library dose: low library concentration; 72 h.
For the compound `C=CCn1c(=O)c2cnc(Nc3ccc(N4CCN(C)CC4)cc3)nc2n1-c1cccc(C(C)(C)O)n1` + CCCCCCCCCCCC1=C(O)C(=O)C=C(O)C1=O [Embelin] (first compound 0.02 µM, partner dose 1.2 µM), the “cleaved PARP positive nuclei fraction” value was determined as 90.1%.

Take `Cc1cc(N2CCOCC2)cc2[nH]c(-c3c(NC[C@@H](O)c4cccc(Cl)c4)cc[nH]c3=O)nc12` + COc1ccc(-c2ccc3c(N4CCOCC4)nc(N4C[C@@H](C)O[C@@H](C)C4)nc3n2)cc1CO [KU0063794] (first compound 0.2 µM, partner dose 0.02 µM): the “cleaved PARP positive nuclei fraction” value was found to be 83%.

For `COCC[n+]1c2c(n(Cc3cnccn3)c1C)C(=O)c1ccccc1C2=O` + O=C1NC(=O)/C(=C/c2ccc(-c3ccc(F)cc3O)o2)S1 [AS252424] (first compound 0.0004 µM, partner dose 1 µM), the “cleaved PARP positive nuclei fraction” value was found to be 42.2%.

Consider `Cn1nnc2c(C(N)=O)ncn2c1=O` [temozolomide] + CCc1ccc(CCOc2ccc(CC3SC(=O)NC3=O)cc2)nc1 [pioglitazone] (first compound 2 µM, partner dose 2 µM), for which the “cleaved PARP positive nuclei fraction” value came to 69.6%.

For the compound `C#Cc1cccc(Nc2ncnc3cc(OCCOC)c(OCCOC)cc23)c1` [erlotinib] + Oc1cc(-c2nc(-c3ccccc3)[nH]c2-c2ccncc2)ccc1Cl [L779450] (first compound 0.8 µM, partner dose 0.2 µM), the “cleaved PARP positive nuclei fraction” value was found to be 84.1%.

Take `Cc1ccc(NC(=O)c2cccc(N(C)C)c2)cc1NC(=O)c1ccc(O)cc1` + CCN(CC)CCCCNc1ncc2cc(-c3cc(OC)cc(OC)c3)c(NC(=O)NC(C)(C)C)nc2n1 [PD173074] (first compound 2 µM, partner dose 0.1 µM): the “cleaved PARP positive nuclei fraction” value was 109%.

For the compound `Cn1cncc1[C@@](N)(c1ccc(Cl)cc1)c1ccc2c(c1)c(-c1cccc(Cl)c1)cc(=O)n2C` [tipifarnib] + CCCCCCCCCCCC1=C(O)C(=O)C=C(O)C1=O [Embelin] (first compound 0.01 µM, partner dose 1.2 µM), the “cleaved PARP positive nuclei fraction” value came out at 21.4%.

Take `O=C(CCCCCCC(=O)Nc1ccccc1)NO` [vorinostat] + c1cc(-c2cnn3cc(-c4ccc(OCCN5CCCCC5)cc4)cnc23)ccn1 [Dorsomorphin] (first compound 0.08 µM, partner dose 0.4 µM): the “cleaved PARP positive nuclei fraction” value was found to be 93.8%.

On to `NC(=O)Nc1cc(-c2cccc(F)c2)sc1C(=O)N[C@H]1CCCNC1` + COC(=O)c1sccc1S(=O)(=O)Nc1ccc(Nc2ccccc2)cc1OC [GSK0660] (first compound 0.02 µM, partner dose 1 µM), for which the “cleaved PARP positive nuclei fraction” value was 37.4%.

For the compound `Cc1nc(Nc2ncc(C(=O)Nc3c(C)cccc3Cl)s2)cc(N2CCN(CCO)CC2)n1` [dasatanib] + Oc1nc(-c2ccc(C(F)(F)F)cc2)nc2c1CSCC2 [XAV939] (first compound 0.004 µM, partner dose 2 µM), the “cleaved PARP positive nuclei fraction” value worked out at 157%.

As to `Cn1cncc1[C@@](N)(c1ccc(Cl)cc1)c1ccc2c(c1)c(-c1cccc(Cl)c1)cc(=O)n2C` [tipifarnib] + Oc1cc(-c2nc(-c3ccccc3)[nH]c2-c2ccncc2)ccc1Cl [L779450] (first compound 0.01 µM, partner dose 0.2 µM), the “cleaved PARP positive nuclei fraction” value amounted to 101%.

For `O=C(CCCCCCC(=O)Nc1ccccc1)NO` [vorinostat] + COc1ccc(COc2ccc(Cc3cnc(N)nc3N)cc2OC)cc1 [GW2580] (first compound 0.08 µM, partner dose 1 µM), the “cleaved PARP positive nuclei fraction” value came to 61%.

For `O=C(CCCCCCC(=O)Nc1ccccc1)NO` [vorinostat] + COc1cc(N2CCC(N3CCN(C)CC3)CC2)ccc1Nc1ncc(Cl)c(Nc2ccccc2S(=O)(=O)C(C)C)n1 [NVP-TAE684] (first compound 0.08 µM, partner dose 0.08 µM), the “cleaved PARP positive nuclei fraction” value came to 80.8%.

`OCCn1cc(-c2cnc3nnn(Cc4ccc5ncccc5c4)c3n2)cn1` + Oc1nc(-c2ccc(C(F)(F)F)cc2)nc2c1CSCC2 [XAV939] (first compound 1 µM, partner dose 2 µM): the “cleaved PARP positive nuclei fraction” value was 61.1%.

Consider `Cn1nnc2c(C(N)=O)ncn2c1=O` [temozolomide] + COc1ccc(COc2ccc(Cc3cnc(N)nc3N)cc2OC)cc1 [GW2580] (first compound 2 µM, partner dose 1 µM), for which the “cleaved PARP positive nuclei fraction” value was found to be 162%.

Regarding `C=CCn1c(=O)c2cnc(Nc3ccc(N4CCN(C)CC4)cc3)nc2n1-c1cccc(C(C)(C)O)n1` + COc1ccc(COc2ccc(Cc3cnc(N)nc3N)cc2OC)cc1 [GW2580] (first compound 0.02 µM, partner dose 1 µM), the “cleaved PARP positive nuclei fraction” value is 45%.

As to `NC(=O)Nc1cc(-c2cccc(F)c2)sc1C(=O)N[C@H]1CCCNC1` + Cn1cc(/C=C2\C(=O)Nc3cccnc32)c2ccccc21 [GW441756] (first compound 0.02 µM, partner dose 0.4 µM), the “cleaved PARP positive nuclei fraction” value worked out at 98.7%.

For the compound `CO[C@@H]1[C@H](N(C)C(=O)c2ccccc2)C[C@H]2O[C@]1(C)n1c3ccccc3c3c4c(c5c6ccccc6n2c5c31)C(=O)NC4` [Midostaurin] + O=C(O)C(=O)Nc1sc2c(c1C(=O)O)CCNC2 [TCS401] (first compound 0.08 µM, partner dose 1.66667 µM), the “cleaved PARP positive nuclei fraction” value is 195%.

As to `C#Cc1cccc(Nc2ncnc3cc(OCCOC)c(OCCOC)cc23)c1` [erlotinib] + COc1cc2ncnc(Nc3ccc(Oc4ccccc4)cc3)c2cc1OC [SrcI1] (first compound 0.8 µM, partner dose 2 µM), the “cleaved PARP positive nuclei fraction” value turned out to be 36.6%.

Regarding `Cn1cncc1[C@@](N)(c1ccc(Cl)cc1)c1ccc2c(c1)c(-c1cccc(Cl)c1)cc(=O)n2C` [tipifarnib] + COc1ccc2c(c1)CCC1C2CCC2(C)C(NCCCCCCN3C(=O)C=CC3=O)CCC12 [U73122] (first compound 0.01 µM, partner dose 0.4 µM), the “cleaved PARP positive nuclei fraction” value is 119%.

`O=C(Nc1cccc(Cl)c1)Nc1ncc(CCNc2ncnc3ccsc23)s1` + O=C(O)C(=O)Nc1sc2c(c1C(=O)O)CCNC2 [TCS401] (first compound 0.0008 µM, partner dose 1.66667 µM): the “cleaved PARP positive nuclei fraction” value came out at 131%.

As to `C=CCn1c(=O)c2cnc(Nc3ccc(N4CCN(C)CC4)cc3)nc2n1-c1cccc(C(C)(C)O)n1` + O=S(=O)(c1ccccc1)N(CC(F)(F)F)c1ccc(C(O)(C(F)(F)F)C(F)(F)F)cc1 [T0901317] (first compound 0.02 µM, partner dose 1.4 µM), the “cleaved PARP positive nuclei fraction” value is 71.7%.

`CC(C)(C)c1cnc(CSc2cnc(NC(=O)C3CCNCC3)s2)o1` + c1cc(-c2cnn3cc(-c4ccc(OCCN5CCCCC5)cc4)cnc23)ccn1 [Dorsomorphin] (first compound 0.01 µM, partner dose 0.4 µM): the “cleaved PARP positive nuclei fraction” value was 63.5%.

Regarding `O=C(CCCCCCC(=O)Nc1ccccc1)NO` [vorinostat] + O=S(=O)(c1ccccc1)N(CC(F)(F)F)c1ccc(C(O)(C(F)(F)F)C(F)(F)F)cc1 [T0901317] (first compound 0.08 µM, partner dose 1.4 µM), the “cleaved PARP positive nuclei fraction” value was 37.4%.

On to `Cn1c(Nc2ccc(C(F)(F)F)cc2)nc2cc(Oc3ccnc(-c4ncc(C(F)(F)F)[nH]4)c3)ccc21` + COC(=O)c1sccc1S(=O)(=O)Nc1ccc(Nc2ccccc2)cc1OC [GSK0660] (first compound 0.08 µM, partner dose 1 µM), for which the “cleaved PARP positive nuclei fraction” value is 108%.

Take `C#Cc1cccc(Nc2ncnc3cc(OCCOC)c(OCCOC)cc23)c1` [erlotinib] + O=C(Nc1ccccc1)c1cc([N+](=O)[O-])ccc1Cl [GW9662] (first compound 0.8 µM, partner dose 2 µM): the “cleaved PARP positive nuclei fraction” value turned out to be 77.9%.

Consider `Cc1cc(N2CCOCC2)cc2[nH]c(-c3c(NC[C@@H](O)c4cccc(Cl)c4)cc[nH]c3=O)nc12` + O=C(O)C(=O)Nc1sc2c(c1C(=O)O)CCNC2 [TCS401] (first compound 0.2 µM, partner dose 1.66667 µM), for which the “cleaved PARP positive nuclei fraction” value worked out at 122%.
